The record followed here is paper PMC10022686.

Protein sequences, listed by entry. Tags and fused reporters are not part of them. Lines headed by an entry give the natural chain unless they say otherwise; changes in a name come on top.
UniProt Q9HD67: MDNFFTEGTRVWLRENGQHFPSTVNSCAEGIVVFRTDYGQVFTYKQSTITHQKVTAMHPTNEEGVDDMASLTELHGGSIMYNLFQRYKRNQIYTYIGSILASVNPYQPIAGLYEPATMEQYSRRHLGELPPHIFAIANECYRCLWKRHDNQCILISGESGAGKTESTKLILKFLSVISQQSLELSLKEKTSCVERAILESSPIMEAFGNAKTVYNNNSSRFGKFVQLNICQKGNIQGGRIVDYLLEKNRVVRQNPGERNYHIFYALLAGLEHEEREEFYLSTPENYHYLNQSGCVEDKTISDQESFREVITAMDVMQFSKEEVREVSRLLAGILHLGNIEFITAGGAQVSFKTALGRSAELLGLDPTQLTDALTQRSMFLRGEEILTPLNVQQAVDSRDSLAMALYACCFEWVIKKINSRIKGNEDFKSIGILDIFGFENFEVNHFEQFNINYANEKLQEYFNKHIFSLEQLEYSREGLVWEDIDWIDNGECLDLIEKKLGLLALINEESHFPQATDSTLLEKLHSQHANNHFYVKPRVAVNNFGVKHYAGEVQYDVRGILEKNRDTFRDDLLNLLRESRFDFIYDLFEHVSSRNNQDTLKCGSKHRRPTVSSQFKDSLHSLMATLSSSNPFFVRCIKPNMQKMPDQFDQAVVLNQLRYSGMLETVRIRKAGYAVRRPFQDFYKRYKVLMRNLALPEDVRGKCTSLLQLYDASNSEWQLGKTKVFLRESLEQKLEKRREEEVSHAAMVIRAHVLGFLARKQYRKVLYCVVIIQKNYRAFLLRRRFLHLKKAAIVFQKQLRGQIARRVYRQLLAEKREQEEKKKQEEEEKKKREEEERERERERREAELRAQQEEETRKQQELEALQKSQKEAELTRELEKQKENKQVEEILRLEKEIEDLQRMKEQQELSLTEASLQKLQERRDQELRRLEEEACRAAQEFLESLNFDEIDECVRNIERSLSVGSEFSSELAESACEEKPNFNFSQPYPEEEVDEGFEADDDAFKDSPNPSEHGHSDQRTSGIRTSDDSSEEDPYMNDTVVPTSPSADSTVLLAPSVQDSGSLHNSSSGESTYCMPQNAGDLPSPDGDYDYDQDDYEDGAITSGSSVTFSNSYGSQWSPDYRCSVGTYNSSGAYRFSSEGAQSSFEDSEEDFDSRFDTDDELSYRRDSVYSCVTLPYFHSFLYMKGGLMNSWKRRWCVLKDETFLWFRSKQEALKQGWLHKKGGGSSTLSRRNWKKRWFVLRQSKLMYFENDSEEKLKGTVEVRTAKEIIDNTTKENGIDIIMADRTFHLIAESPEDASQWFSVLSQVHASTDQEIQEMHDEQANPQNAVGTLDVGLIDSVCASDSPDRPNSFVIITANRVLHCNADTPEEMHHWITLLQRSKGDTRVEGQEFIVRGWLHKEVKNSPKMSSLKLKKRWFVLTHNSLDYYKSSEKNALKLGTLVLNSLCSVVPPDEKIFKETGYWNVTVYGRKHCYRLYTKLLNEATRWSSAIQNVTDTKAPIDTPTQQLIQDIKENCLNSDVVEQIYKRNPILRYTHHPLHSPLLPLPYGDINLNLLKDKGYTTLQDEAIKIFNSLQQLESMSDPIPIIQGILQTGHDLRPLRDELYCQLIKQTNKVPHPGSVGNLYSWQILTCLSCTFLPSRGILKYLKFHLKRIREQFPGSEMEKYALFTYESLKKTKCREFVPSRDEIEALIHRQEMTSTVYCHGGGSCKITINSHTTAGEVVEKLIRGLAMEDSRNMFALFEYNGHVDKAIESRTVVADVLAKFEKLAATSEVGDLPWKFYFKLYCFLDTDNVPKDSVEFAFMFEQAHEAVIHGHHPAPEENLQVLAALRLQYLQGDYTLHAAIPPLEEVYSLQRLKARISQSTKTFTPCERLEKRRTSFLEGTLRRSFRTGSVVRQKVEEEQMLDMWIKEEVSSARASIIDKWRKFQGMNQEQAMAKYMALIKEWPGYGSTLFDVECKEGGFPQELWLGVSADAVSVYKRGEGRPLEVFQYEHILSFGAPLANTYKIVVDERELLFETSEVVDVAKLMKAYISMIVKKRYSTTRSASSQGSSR
UniProt Q70E73: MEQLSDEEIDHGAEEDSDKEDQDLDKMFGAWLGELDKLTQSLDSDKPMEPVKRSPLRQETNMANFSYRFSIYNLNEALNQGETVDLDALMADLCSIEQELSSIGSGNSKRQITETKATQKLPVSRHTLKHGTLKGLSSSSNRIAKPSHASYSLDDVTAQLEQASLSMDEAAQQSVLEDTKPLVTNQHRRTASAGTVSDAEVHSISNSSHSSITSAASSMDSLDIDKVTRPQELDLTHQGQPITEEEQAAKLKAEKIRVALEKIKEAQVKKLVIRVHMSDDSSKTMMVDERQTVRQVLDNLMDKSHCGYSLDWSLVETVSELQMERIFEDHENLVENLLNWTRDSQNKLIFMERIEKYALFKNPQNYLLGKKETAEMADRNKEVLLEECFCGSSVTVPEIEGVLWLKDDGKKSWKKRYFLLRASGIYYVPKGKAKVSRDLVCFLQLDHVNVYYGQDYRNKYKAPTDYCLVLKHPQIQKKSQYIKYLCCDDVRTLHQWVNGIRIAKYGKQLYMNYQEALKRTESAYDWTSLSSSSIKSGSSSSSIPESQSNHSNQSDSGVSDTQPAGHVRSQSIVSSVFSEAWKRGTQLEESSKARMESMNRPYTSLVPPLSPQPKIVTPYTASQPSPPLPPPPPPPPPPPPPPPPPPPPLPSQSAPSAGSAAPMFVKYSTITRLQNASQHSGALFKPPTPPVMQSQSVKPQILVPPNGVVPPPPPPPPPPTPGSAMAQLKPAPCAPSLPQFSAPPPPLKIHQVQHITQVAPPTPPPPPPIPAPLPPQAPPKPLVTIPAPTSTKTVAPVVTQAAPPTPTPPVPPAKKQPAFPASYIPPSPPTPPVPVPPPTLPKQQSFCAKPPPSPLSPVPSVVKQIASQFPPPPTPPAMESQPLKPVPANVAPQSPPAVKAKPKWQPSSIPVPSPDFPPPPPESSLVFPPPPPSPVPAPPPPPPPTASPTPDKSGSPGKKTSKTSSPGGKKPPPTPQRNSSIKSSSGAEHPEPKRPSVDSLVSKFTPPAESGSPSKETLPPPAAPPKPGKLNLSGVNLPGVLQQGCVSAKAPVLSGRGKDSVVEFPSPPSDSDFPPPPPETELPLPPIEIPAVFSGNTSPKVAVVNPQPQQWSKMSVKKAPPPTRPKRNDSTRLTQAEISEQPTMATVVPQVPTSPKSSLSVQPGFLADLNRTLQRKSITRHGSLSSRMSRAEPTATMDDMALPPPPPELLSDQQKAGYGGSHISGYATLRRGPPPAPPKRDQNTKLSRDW

Results are given in words; binding and its absence hold for the method and conditions named. In cells and extracts the contact can be indirect. Binding calls can cover weak binding; strength is not graded here.

The target in this assay is GFP–MYO10^FERM (MyTH4/FERM domain of myosin-X) (UniProt Q9HD67). Put plainly: co-IP; GFP pulldown in U2-OS cells expressing GFP–MYO10^FERM, GFP–Talin^FERM or GFP alone; endogenous RAPH1 detected by western blotting.

In the case of “lamellipodin (RAPH1), endogenous in U2-OS cells (from UniProt Q70E73 1-1250)”, the binding result is given as “binds”.
